Consider five substances from PMC12704088.

Amino acid sequences for entries named in this document (tags omitted). A change or cut given only in a name is not applied to a line headed by its entry. Chains listed by the source or under a name are the forms on record and can include a tag or linker.
UniProt P21333: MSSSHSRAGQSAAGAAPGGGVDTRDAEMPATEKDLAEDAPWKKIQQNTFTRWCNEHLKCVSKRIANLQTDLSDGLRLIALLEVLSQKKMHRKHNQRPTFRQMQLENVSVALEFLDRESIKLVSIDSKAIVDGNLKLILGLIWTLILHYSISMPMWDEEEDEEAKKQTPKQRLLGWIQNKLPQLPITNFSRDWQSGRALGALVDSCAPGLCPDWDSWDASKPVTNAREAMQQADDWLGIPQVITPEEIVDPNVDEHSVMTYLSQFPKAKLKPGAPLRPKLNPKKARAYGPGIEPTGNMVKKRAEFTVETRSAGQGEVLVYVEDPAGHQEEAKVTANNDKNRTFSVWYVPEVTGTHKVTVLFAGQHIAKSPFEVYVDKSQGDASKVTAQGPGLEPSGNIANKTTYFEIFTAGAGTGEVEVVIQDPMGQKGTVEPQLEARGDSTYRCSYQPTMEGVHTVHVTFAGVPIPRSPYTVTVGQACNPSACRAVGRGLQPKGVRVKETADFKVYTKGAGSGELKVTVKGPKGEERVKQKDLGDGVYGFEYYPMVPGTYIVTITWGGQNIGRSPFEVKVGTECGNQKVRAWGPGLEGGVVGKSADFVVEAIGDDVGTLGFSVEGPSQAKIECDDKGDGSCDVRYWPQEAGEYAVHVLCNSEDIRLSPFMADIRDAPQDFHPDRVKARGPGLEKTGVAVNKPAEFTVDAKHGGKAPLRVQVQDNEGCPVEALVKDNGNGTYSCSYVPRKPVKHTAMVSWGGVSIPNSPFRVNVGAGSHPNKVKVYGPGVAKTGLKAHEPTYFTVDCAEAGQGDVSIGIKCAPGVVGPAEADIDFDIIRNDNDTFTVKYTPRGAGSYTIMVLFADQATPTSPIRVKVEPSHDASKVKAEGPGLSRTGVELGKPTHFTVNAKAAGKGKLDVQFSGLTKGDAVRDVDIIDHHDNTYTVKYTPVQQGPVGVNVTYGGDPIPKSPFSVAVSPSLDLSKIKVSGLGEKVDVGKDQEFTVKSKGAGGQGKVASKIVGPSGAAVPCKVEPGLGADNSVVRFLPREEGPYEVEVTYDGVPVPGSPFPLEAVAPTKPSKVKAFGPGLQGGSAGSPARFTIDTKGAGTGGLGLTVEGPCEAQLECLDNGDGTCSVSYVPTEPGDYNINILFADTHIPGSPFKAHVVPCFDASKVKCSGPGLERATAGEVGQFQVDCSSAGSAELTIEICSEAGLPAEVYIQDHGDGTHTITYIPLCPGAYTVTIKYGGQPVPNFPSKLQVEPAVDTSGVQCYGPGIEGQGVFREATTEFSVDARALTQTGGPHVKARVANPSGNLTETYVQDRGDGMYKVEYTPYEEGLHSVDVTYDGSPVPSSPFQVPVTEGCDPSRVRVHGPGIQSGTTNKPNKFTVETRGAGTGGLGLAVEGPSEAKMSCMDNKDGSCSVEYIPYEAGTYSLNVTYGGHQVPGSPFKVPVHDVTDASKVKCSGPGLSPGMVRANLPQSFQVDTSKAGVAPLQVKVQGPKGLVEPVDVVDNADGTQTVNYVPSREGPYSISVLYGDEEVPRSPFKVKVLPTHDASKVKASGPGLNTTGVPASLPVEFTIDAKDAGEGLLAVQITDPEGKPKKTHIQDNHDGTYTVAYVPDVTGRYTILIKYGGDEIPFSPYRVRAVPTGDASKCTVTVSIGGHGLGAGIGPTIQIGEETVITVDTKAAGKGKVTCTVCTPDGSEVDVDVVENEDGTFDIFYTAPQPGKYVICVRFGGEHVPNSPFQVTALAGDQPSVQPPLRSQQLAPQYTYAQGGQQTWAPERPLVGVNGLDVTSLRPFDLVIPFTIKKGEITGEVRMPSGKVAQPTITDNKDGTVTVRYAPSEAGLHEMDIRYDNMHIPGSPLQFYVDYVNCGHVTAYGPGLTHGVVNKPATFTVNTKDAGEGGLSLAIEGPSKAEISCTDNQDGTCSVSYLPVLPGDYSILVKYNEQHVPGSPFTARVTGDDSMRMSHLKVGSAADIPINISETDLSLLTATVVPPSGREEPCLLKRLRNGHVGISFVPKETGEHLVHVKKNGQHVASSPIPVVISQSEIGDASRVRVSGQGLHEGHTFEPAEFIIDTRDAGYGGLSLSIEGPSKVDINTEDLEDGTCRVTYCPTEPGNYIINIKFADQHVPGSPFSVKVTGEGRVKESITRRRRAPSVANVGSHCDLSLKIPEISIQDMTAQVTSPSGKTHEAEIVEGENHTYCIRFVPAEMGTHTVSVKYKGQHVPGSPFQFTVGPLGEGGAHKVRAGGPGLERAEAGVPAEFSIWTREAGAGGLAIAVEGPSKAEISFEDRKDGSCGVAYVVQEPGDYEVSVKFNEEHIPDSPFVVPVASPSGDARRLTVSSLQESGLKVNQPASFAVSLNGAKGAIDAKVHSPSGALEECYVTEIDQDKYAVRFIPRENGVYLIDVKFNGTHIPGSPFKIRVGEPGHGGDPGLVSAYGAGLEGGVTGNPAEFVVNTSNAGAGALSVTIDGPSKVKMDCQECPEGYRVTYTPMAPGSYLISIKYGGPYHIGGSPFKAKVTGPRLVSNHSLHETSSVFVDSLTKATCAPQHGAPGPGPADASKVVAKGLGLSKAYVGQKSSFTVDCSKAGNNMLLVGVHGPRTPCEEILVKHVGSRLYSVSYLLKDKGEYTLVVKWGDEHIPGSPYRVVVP
mCherry-FLNA Δ571-866 (P21333, form named): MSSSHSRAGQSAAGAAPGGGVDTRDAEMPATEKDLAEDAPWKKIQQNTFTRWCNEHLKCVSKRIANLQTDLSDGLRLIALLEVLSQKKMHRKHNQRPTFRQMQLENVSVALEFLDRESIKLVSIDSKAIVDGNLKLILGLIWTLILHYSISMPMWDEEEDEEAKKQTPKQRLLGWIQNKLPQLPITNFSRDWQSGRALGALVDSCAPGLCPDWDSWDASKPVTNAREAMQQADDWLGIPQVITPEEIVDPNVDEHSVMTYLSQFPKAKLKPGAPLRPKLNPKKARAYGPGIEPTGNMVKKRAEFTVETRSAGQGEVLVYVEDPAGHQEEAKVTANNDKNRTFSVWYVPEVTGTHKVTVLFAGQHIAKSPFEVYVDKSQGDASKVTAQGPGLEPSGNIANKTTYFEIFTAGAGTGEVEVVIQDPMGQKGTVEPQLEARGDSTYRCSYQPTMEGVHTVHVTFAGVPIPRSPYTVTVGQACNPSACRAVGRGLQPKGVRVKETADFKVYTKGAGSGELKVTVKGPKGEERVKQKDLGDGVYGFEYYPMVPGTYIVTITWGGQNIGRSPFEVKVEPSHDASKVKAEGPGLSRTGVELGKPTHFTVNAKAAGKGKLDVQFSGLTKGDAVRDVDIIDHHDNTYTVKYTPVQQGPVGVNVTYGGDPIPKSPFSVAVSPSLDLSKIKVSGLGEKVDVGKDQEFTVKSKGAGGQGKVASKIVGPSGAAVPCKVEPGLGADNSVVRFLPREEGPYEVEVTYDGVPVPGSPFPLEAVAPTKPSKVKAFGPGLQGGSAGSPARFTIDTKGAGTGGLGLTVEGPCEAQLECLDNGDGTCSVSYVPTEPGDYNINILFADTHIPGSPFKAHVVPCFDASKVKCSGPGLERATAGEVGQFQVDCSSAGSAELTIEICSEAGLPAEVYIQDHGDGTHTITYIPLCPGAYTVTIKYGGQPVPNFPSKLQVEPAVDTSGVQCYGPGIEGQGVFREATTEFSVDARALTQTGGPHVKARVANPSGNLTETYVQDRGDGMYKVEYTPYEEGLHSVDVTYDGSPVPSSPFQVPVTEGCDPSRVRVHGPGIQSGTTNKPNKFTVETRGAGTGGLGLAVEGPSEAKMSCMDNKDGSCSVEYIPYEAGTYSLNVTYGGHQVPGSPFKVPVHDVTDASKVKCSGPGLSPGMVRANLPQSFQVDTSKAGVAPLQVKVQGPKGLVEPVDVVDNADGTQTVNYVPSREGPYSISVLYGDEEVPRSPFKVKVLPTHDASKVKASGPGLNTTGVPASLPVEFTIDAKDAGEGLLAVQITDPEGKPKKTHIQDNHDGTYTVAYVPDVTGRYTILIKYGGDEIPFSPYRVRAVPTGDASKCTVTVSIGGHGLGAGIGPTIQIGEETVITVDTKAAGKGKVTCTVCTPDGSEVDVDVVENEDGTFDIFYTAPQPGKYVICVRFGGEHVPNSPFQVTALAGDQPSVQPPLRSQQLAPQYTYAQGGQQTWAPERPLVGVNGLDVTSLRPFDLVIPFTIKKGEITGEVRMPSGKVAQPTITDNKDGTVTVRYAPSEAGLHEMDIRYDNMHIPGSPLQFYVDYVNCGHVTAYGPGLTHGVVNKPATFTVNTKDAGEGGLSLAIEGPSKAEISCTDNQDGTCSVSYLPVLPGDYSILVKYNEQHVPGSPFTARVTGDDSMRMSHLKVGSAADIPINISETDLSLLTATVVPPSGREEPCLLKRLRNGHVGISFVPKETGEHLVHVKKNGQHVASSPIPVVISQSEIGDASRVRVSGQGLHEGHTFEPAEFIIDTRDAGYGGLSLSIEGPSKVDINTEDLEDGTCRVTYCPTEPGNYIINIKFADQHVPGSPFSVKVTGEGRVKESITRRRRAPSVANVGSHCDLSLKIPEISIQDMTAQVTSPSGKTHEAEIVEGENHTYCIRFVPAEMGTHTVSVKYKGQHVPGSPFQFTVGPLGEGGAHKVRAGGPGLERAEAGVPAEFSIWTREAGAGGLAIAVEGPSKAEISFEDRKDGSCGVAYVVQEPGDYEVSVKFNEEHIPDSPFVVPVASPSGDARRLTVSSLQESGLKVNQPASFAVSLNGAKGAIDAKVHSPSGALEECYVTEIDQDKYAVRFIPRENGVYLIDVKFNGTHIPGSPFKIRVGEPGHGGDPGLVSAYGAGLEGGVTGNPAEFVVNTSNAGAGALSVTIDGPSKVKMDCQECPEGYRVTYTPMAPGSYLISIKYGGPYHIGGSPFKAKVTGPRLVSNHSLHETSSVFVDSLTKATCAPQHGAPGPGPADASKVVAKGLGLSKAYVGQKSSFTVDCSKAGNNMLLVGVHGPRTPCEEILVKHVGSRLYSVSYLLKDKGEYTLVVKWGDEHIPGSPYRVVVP

Experiment [1] has as its target FLNA with a fluorescent protein for FRET (UniProt P21333). In words: FRET or BRET; acceptor photobleaching FRET (ECFP donor, dsRed acceptor) in fixed transfected cells, serum-starved 18 h, 20 µM LPA or H2O for 45 min. A general note: In BRET a luciferase serves as donor, and the signal depends on an acceptor being close.
Experiment [2] deals with Filamin A (FLNA), endogenous (human (endogenous in HepG2, HLF, HuH7, Hep3B and human organoids)) (UniProt P21333). Nature of the experiment: proximity ligation; DuoLink in situ PLA with anti-DLC1, anti-FLNA and anti-MRTF-A antibodies in fixed HepG2, HLF, HuH7, Hep3B cells and monolayers of human organoids; treatments: HA-FLNA-ABD or GFP-DLC1 expression, tat-DLC1bp, HA-100, EGF, LPA, Latrunculin B, S14C-actin, RhoAV14.

The target is the same in experiment [3]. In words: co-IP; IP with anti-FLNA antibody of endogenous FLNA from HuH7 and HLF cell lysates; immunoblot for DLC1.
Another experiment concerns the target mCherry-FLNA Δ571-866 (UniProt P21333). In words: co-IP; IP with anti-mCherry antibody on Dynabeads from lysates of transfected HuH7 cells; immunoblot with anti-mCherry and anti-Flag; beads-only control. On the technique in general: In western blotting, separated proteins are transferred to a membrane and probed.
The target of experiment [4] is Myc-FLNA (Filamin A, wild type) (UniProt P21333). In words: co-IP; IP with anti-Myc antibody on Dynabeads from lysates of transfected HuH7 cells (150 mM NaCl, 50 mM Tris-HCl, 10% glycerol), overnight 4°C; immunoblot; IgG or beads-only control.
The next experiment has as its target Myc-FLNA S2152A (UniProt P21333). Described as above.

No constants are given. Whether binding was seen depends on the method and setting. Binding seen in cells or lysates may run through a third protein. Binding can be weak; no strength is given.

In the case of “DLC1 with a fluorescent protein for FRET (from UniProt Q96QB1-1)”, the binding entry in experiment [1] is on record as “binds”.
For the substance “Deleted in Liver Cancer 1 (DLC1), endogenous (from UniProt Q96QB1-1)”, the binding entry in experiment [2] and in experiment [3] was “binds” in each case.
With “Flag-DLC1 (Deleted in Liver Cancer 1) (from UniProt Q96QB1-1)”, the binding result (with mCherry-FLNA Δ571-866; in experiment [4]; in the experiment with Myc-FLNA S2152A) was “binds” throughout.
As for “GFP-DLC1 full length (wild type) (from UniProt Q96QB1-1)”, in experiment [4], the binding result is recorded as “binds”.
“GFP-DLC1 ΔRhoGAP (from UniProt Q96QB1-2)”: the binding result in experiment [4] is “no binding”.
